Test results as given in the supplement of paper PMC6411743.
± gives the standard deviation of the averaged measurements. This is one part of the list.

The chains behind the UniProt entries cited, without tags or fusion partners. Where a name states a change or a piece, a line headed by the entry shows the natural chain unless it says otherwise.
UniProt Q969Y2: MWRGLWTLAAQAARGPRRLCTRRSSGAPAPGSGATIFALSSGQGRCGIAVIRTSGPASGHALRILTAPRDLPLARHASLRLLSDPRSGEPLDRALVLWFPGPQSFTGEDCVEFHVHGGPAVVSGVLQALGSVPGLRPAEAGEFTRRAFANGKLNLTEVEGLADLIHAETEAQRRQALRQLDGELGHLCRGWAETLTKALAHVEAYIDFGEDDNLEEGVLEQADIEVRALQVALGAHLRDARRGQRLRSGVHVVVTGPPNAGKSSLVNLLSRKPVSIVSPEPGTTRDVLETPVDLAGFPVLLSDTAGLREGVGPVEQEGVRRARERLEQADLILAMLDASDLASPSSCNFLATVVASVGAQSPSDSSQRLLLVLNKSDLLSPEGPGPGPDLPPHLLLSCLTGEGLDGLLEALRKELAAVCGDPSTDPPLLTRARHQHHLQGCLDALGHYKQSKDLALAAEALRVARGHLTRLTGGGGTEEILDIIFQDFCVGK
UniProt Q96A33: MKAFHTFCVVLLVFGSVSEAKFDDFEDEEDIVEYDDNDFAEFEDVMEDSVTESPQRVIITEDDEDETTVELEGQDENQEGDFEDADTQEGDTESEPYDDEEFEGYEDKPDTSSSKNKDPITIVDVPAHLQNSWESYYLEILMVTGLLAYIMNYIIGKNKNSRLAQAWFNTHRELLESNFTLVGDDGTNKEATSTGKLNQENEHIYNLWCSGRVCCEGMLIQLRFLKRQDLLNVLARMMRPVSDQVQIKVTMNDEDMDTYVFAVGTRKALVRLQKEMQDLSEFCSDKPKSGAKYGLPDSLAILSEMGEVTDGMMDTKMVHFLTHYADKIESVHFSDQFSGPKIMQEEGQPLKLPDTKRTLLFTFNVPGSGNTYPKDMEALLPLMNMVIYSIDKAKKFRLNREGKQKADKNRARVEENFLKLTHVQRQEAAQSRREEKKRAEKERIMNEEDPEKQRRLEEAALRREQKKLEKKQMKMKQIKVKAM
UniProt Q96EY8: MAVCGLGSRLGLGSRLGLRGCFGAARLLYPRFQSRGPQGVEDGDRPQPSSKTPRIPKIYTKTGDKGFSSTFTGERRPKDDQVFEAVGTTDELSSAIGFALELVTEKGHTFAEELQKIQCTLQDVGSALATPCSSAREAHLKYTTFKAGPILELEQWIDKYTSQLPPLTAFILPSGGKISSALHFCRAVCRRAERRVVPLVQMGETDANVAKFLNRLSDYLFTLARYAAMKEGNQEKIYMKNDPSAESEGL
UniProt Q96JM7: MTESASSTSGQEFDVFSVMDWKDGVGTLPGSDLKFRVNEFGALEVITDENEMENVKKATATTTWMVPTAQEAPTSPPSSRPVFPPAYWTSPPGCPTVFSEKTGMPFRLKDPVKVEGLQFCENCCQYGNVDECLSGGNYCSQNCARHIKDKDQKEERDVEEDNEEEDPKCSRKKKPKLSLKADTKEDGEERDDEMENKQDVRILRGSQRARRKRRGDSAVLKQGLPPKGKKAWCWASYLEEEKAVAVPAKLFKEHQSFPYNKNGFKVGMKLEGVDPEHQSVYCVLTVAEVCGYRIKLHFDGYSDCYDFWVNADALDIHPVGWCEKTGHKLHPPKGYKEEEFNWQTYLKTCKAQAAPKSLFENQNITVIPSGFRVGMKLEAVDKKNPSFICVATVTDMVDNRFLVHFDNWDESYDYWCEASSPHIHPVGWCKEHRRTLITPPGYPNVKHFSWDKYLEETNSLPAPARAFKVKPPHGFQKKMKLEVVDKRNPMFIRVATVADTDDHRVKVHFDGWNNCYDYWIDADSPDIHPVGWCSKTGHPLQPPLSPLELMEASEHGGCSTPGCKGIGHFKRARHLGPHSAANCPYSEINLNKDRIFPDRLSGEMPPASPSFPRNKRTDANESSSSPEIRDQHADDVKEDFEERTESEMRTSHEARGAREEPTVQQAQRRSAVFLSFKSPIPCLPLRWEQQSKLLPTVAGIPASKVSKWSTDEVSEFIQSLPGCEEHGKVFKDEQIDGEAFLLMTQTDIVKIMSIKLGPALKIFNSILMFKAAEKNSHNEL
UniProt Q96DU3: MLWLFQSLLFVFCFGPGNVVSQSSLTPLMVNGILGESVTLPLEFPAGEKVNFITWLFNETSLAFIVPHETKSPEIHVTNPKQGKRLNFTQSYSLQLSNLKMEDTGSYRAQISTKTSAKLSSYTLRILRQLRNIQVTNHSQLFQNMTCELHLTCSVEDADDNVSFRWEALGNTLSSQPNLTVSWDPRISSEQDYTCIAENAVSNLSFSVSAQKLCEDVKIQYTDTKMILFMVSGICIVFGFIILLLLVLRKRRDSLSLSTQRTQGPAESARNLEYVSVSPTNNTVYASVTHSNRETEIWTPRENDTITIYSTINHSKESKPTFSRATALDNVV
UniProt Q92506: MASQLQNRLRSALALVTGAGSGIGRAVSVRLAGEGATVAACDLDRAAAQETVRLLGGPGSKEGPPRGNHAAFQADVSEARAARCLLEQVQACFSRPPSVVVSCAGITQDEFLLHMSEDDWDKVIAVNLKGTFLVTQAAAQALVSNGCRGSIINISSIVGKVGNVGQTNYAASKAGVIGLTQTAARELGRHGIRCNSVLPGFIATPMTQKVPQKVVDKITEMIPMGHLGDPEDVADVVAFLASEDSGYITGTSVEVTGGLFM
UniProt Q92542, whole entry: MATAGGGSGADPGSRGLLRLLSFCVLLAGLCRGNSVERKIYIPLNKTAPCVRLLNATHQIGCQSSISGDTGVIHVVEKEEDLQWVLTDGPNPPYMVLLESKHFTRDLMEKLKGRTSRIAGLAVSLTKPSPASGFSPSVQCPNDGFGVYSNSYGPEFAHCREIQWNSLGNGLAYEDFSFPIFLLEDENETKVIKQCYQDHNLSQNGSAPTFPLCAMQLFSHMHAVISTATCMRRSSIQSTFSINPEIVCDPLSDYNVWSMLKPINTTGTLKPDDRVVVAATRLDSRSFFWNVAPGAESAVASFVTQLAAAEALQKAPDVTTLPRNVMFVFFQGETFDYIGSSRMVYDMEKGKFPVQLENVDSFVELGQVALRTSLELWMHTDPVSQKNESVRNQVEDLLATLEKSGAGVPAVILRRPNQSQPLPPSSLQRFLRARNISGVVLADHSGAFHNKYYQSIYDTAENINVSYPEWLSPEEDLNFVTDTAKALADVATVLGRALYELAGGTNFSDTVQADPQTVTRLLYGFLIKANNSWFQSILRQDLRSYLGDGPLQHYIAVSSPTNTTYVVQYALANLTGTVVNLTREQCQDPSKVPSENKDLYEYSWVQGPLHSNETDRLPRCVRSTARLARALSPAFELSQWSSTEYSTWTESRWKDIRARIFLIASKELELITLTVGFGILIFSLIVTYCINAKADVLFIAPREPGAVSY
UniProt Q96CN4: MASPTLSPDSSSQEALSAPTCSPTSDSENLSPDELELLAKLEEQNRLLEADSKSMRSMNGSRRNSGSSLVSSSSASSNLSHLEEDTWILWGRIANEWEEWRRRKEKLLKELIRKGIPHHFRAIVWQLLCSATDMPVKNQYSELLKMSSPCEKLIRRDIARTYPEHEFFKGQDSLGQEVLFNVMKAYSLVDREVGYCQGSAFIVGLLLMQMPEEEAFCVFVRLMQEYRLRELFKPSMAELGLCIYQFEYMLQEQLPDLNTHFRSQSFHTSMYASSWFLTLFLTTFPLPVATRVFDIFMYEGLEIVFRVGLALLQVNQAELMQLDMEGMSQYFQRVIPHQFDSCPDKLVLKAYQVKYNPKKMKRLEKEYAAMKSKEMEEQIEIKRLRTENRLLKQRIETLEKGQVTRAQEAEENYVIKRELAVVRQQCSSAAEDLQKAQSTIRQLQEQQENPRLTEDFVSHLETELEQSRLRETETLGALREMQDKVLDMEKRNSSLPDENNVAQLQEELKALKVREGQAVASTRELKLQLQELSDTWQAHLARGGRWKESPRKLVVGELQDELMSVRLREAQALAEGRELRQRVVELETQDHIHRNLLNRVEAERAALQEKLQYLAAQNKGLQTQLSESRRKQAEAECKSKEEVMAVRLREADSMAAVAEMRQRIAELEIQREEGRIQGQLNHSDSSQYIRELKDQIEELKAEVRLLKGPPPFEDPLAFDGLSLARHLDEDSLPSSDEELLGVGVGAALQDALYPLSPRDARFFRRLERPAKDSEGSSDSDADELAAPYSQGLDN
UniProt Q96G28: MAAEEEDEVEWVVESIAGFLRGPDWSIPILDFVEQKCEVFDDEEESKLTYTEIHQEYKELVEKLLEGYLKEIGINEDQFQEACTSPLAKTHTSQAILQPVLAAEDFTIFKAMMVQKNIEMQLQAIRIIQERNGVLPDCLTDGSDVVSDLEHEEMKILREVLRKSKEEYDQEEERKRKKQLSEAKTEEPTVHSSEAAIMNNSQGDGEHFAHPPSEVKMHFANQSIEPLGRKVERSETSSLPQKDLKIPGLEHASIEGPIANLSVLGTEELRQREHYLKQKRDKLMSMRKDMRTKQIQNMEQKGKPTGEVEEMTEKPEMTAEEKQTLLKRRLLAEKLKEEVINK
UniProt Q96F86: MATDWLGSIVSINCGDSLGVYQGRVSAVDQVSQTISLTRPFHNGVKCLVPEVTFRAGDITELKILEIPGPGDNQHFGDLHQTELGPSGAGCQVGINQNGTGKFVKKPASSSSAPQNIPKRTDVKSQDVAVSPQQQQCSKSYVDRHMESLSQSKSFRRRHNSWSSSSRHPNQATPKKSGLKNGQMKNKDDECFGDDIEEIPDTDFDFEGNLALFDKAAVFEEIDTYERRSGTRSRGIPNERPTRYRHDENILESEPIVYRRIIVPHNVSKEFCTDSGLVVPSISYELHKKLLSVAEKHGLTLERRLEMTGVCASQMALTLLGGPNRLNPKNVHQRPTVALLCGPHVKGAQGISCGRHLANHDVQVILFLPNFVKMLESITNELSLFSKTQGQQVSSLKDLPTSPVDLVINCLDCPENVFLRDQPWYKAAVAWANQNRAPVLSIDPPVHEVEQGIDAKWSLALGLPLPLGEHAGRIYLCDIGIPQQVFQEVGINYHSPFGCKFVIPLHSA
UniProt Q92625: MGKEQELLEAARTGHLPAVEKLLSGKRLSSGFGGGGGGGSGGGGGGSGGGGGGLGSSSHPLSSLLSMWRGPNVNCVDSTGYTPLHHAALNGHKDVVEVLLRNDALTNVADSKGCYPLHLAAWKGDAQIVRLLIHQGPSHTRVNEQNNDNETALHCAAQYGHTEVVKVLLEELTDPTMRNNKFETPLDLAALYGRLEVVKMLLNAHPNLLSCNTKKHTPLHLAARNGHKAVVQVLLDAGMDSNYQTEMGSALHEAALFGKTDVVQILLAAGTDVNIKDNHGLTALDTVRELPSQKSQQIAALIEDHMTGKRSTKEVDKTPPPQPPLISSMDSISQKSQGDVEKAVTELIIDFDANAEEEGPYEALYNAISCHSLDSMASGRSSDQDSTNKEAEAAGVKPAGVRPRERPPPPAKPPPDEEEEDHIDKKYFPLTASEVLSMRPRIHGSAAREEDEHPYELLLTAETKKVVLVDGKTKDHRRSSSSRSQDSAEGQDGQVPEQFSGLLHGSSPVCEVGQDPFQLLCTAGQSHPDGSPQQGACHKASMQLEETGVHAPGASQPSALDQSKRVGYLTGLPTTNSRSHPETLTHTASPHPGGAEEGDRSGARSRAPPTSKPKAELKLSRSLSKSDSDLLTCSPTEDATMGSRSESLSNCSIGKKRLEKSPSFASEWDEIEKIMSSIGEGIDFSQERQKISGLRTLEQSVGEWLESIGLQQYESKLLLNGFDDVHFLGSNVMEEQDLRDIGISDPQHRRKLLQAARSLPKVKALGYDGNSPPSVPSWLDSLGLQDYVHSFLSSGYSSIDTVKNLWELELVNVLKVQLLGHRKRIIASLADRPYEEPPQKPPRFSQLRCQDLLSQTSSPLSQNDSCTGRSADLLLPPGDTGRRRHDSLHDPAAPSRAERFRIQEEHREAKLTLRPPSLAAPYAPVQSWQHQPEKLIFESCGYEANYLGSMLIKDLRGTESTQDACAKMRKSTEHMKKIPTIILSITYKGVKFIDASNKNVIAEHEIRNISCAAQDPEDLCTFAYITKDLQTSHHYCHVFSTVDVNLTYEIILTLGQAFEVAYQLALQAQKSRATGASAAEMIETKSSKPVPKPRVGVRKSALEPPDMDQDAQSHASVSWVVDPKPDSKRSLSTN
UniProt Q8WUB8: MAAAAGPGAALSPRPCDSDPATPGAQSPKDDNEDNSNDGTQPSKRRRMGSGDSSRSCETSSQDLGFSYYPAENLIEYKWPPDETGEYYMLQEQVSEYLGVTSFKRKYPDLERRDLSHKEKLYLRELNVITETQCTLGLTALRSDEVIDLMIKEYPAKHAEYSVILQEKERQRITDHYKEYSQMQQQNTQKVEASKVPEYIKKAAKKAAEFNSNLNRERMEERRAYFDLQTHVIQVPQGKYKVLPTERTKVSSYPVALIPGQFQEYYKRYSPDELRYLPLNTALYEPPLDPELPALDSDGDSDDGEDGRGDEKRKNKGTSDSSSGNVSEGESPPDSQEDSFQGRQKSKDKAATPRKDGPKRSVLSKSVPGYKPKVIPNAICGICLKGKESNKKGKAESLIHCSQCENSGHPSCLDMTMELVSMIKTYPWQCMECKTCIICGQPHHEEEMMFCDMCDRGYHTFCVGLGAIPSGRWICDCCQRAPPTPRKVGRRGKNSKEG

Compound: Nc1nc2c(ncn2[C@@H]2O[C@H](COP(=O)(O)OP(=O)(O)OP(=O)(O)O)[C@@H](O)[C@H]2O)c(=O)[nH]1 [guanosine triphosphate]
Test: NP40-soluble protein abundance relative to vehicle (solubility fold change) (ratio); higher = more soluble protein in presence of GTP
Outline: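 Jurkat crude lysate (Dounce-homogenised) was treated with eight concentrations from 0.1 to 10 mM for 10 min at room temperature, then 3 min at 37 °C. It was solubilised with 0.8% NP40 and benzonase (60 min, 4 °C) and ultracentrifuged, and the supernatant was TMT-labelled for LC-MS/MS. Intensities were vsn-normalised, and the value is the fold change against the NP40-processed vehicle per replicate, from three independent experiments.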

Target	NP40-soluble protein abundance (concentration: 0.1mM)	NP40-soluble protein abundance (concentration: 0.5mM)	NP40-soluble protein abundance (concentration: 1mM)	NP40-soluble protein abundance (concentration: 2mM)	NP40-soluble protein abundance (concentration: 4mM)	NP40-soluble protein abundance (concentration: 6mM)	NP40-soluble protein abundance (concentration: 8mM)	NP40-soluble protein abundance (concentration: 10mM)
UniProt Q96G74 and related entries	0.952 ± 0.073	0.968 ± 0.073	1.03 ± 0.065	0.998 ± 0.099	0.976 ± 0.088	0.985 ± 0.11	0.991 ± 0.043	0.975 ± 0.044
UniProt Q969Y2 and related entries	0.99 ± 0.054	0.966 ± 0.094	0.933 ± 0.035	0.931 ± 0.04	0.914 ± 0.038	0.899 ± 0.052	0.892 ± 0.04	0.886 ± 0.066
RAB8B (UniProt Q92930)	0.966 ± 0.018	0.949 ± 0.031	0.923 ± 0.03	0.853 ± 0.049	0.853 ± 0.051	0.845 ± 0.061	0.845 ± 0.044	0.808 ± 0.066
SYAP1 (UniProt Q96A49)	0.9486 ± 0.0035	0.92 ± 0.042	1.02 ± 0.035	0.977 ± 0.015	0.938 ± 0.077	0.968 ± 0.055	1.02 ± 0.059	1.01 ± 0.04
CCDC47 (UniProt Q96A33)	0.98 ± 0.015	1.03 ± 0.034	0.947 ± 0.055	0.965 ± 0.058	0.927 ± 0.054	0.971 ± 0.056	0.941 ± 0.046	0.971 ± 0.056
PGM2 (UniProt Q96G03)	0.997 ± 0.017	1 ± 0.029	0.915 ± 0.025	0.913 ± 0.041	0.893 ± 0.055	0.877 ± 0.027	0.868 ± 0.043	0.86 ± 0.074
MMAB (UniProt Q96EY8)	0.943 ± 0.074	0.892 ± 0.071	0.943 ± 0.046	0.904 ± 0.088	0.931 ± 0.054	0.949 ± 0.073	0.924 ± 0.077	0.923 ± 0.081
UniProt Q96JM7 and related entries	1.13 ± 0.15	1.14 ± 0.016	1.08 ± 0.16	1.13 ± 0.078	1.1 ± 0.2	1.23 ± 0.031	1.11 ± 0.056	1.15 ± 0.073
UniProt Q92947 and related entries	0.949 ± 0.016	0.974 ± 0.033	0.8627 ± 0.0084	0.902 ± 0.045	0.876 ± 0.053	0.862 ± 0.021	0.813 ± 0.029	0.856 ± 0.046
MRPL38 (UniProt Q96DV4)	1.11 ± 0.12	1.15 ± 0.27	1.32 ± 0.43	1.43 ± 0.45	1.49 ± 0.37	1.41 ± 0.5	1.44 ± 0.52	1.32 ± 0.45
UniProt Q96J84 and related entries	1.1 ± 0.061	1.11 ± 0.2	1.09 ± 0.11	1.09 ± 0.03	1.174 ± 0.011	1.07 ± 0.052	1.03 ± 0.062	1.06 ± 0.11
UniProt Q8WWC4	0.951 ± 0.045	0.969 ± 0.053	0.943 ± 0.07	0.928 ± 0.04	0.96 ± 0.051	0.88 ± 0.053	0.892 ± 0.056	0.928 ± 0.05
UniProt Q96DU3 and related entries	0.991 ± 0.081	0.918 ± 0.077	0.966 ± 0.057	0.979 ± 0.077	1.07 ± 0.16	0.983 ± 0.02	0.988 ± 0.11	1 ± 0.053
HSD17B8 (UniProt Q92506)	0.925 ± 0.092	0.976 ± 0.1	0.9 ± 0.096	0.946 ± 0.069	0.893 ± 0.11	0.871 ± 0.082	0.848 ± 0.062	0.899 ± 0.066
UniProt Q92542 and related entries	0.862 ± 0.074	0.836 ± 0.035	0.895 ± 0.078	0.891 ± 0.092	0.927 ± 0.08	0.872 ± 0.066	0.832 ± 0.073	0.901 ± 0.085
UniProt Q93052 and related entries	0.985 ± 0.047	0.946 ± 0.086	0.944 ± 0.072	0.906 ± 0.071	0.884 ± 0.063	0.896 ± 0.081	0.906 ± 0.083	0.901 ± 0.09
UniProt Q96CN4 and related entries	0.974 ± 0.14	0.94 ± 0.019	0.959 ± 0.066	0.964 ± 0.019	1.01 ± 0.043	1.03 ± 0.1	0.976 ± 0.1	1 ± 0.063
UniProt Q92784 and related entries	1.01 ± 0.1	0.999 ± 0.077	1.05 ± 0.072	1.13 ± 0.061	1.15 ± 0.088	1.13 ± 0.063	1.19 ± 0.17	1.18 ± 0.13
UniProt Q96G28 and related entries	0.842 ± 0.024	0.856 ± 0.057	0.967 ± 0.058	0.939 ± 0.064	0.854 ± 0.045	0.918 ± 0.1	0.895 ± 0.1	0.945 ± 0.067
PXDN (UniProt Q92626)	1.07 ± 0.025	1.093 ± 0.01	1.05 ± 0.072	1.06 ± 0.067	1.01 ± 0.036	1.02 ± 0.14	1.06 ± 0.14	1.05 ± 0.13
UniProt Q96D05 and related entries	1.15 ± 0.085	1.07 ± 0.27	1.29 ± 0.32	1.19 ± 0.21	1.16 ± 0.19	1.16 ± 0.049	1.09 ± 0.45	1.23 ± 0.34
EDC3 (UniProt Q96F86)	1.01 ± 0.021	1.05 ± 0.022	1.04 ± 0.026	1.03 ± 0.017	1.02 ± 0.015	1.03 ± 0.011	1.02 ± 0.035	1.01 ± 0.038
AKAP1 (UniProt Q92667)	0.974 ± 0.062	0.973 ± 0.057	0.979 ± 0.053	0.95 ± 0.055	0.96 ± 0.053	0.958 ± 0.064	1 ± 0.069	1 ± 0.068
CREBBP (UniProt Q92793)	1.1 ± 0.09	1.08 ± 0.043	1.052 ± 0.0086	1.03 ± 0.2	1.06 ± 0.086	0.998 ± 0.059	1.09 ± 0.025	0.995 ± 0.097
UniProt Q8WWK9 and related entries	1.05 ± 0.038	0.984 ± 0.07	1.06 ± 0.1	1.04 ± 0.082	1.08 ± 0.064	1.08 ± 0.052	1.16 ± 0.064	1.16 ± 0.033
UniProt Q92759 and related entries	1.06 ± 0.11	1.02 ± 0.17	0.993 ± 0.068	1.04 ± 0.29	1.07 ± 0.1	1.04 ± 0.1	1.05 ± 0.18	1.06 ± 0.14
ANKS1A (UniProt Q92625)	0.981 ± 0.045	0.985 ± 0.065	0.999 ± 0.025	0.974 ± 0.046	0.968 ± 0.03	1 ± 0.062	0.967 ± 0.029	0.971 ± 0.046
USP13 (UniProt Q92995)	1 ± 0.037	0.995 ± 0.03	0.95 ± 0.034	0.947 ± 0.034	0.931 ± 0.055	0.925 ± 0.033	0.911 ± 0.05	0.886 ± 0.059
UniProt Q8WUB8 and related entries	1 ± 0.013	1.06 ± 0.066	1.084 ± 0.0075	1.19 ± 0.059	1.27 ± 0.12	1.25 ± 0.13	1.27 ± 0.15	1.36 ± 0.19
ERCC4 (UniProt Q92889)	1.06 ± 0.067	1.04 ± 0.11	1.08 ± 0.082	1.09 ± 0.043	1 ± 0.12	1.05 ± 0.1	1.02 ± 0.11	1.02 ± 0.053

An excerpt of these results, as a markdown table:

| Target | NP40-soluble protein abundance (concentration: 0.1mM) | NP40-soluble protein abundance (concentration: 0.5mM) | NP40-soluble protein abundance (concentration: 1mM) | NP40-soluble protein abundance (concentration: 2mM) | NP40-soluble protein abundance (concentration: 4mM) | NP40-soluble protein abundance (concentration: 6mM) | NP40-soluble protein abundance (concentration: 8mM) | NP40-soluble protein abundance (concentration: 10mM) |
| --- | --- | --- | --- | --- | --- | --- | --- | --- |
| UniProt Q96D05 and related entries | 1.15 ± 0.085 | 1.07 ± 0.27 | 1.29 ± 0.32 | 1.19 ± 0.21 | 1.16 ± 0.19 | 1.16 ± 0.049 | 1.09 ± 0.45 | 1.23 ± 0.34 |
| EDC3 (UniProt Q96F86) | 1.01 ± 0.021 | 1.05 ± 0.022 | 1.04 ± 0.026 | 1.03 ± 0.017 | 1.02 ± 0.015 | 1.03 ± 0.011 | 1.02 ± 0.035 | 1.01 ± 0.038 |
| AKAP1 (UniProt Q92667) | 0.974 ± 0.062 | 0.973 ± 0.057 | 0.979 ± 0.053 | 0.95 ± 0.055 | 0.96 ± 0.053 | 0.958 ± 0.064 | 1 ± 0.069 | 1 ± 0.068 |
| CREBBP (UniProt Q92793) | 1.1 ± 0.09 | 1.08 ± 0.043 | 1.052 ± 0.0086 | 1.03 ± 0.2 | 1.06 ± 0.086 | 0.998 ± 0.059 | 1.09 ± 0.025 | 0.995 ± 0.097 |
| UniProt Q8WWK9 and related entries | 1.05 ± 0.038 | 0.984 ± 0.07 | 1.06 ± 0.1 | 1.04 ± 0.082 | 1.08 ± 0.064 | 1.08 ± 0.052 | 1.16 ± 0.064 | 1.16 ± 0.033 |
| UniProt Q92759 and related entries | 1.06 ± 0.11 | 1.02 ± 0.17 | 0.993 ± 0.068 | 1.04 ± 0.29 | 1.07 ± 0.1 | 1.04 ± 0.1 | 1.05 ± 0.18 | 1.06 ± 0.14 |
